Results published in article PMC9412414, “A Study on Repositioning Nalidixic Acid via Lanthanide Complexation: Synthesis, Characterization, Cytotoxicity and DNA/Protein Binding Studies” (Pharmaceuticals, 2022).

Tested on: EB–DNA system (CT-DNA)
Experiment: Competitive binding assay with ethidium bromide (EB) through fluorescence spectroscopy
Design: species or system calf
Conditions: EB 2 µM, CT-DNA 10 µM, compound 0–40 µM

Molecule | EB Displacement Assay n (Hill coefficient)
CCn1cc(C(=O)[O-])c(=O)c2ccc(C)nc21.CCn1cc(C(=O)[O-])c(=O)c2ccc(C)nc21.O.O.O.O.[Eu+3].[OH-] [Eu(nal)2, Eu(C12H11N2O3)2(OH)(H2O)·3H2O] | 2.81 ± 0.38
CCn1cc(C(=O)[O-])c(=O)c2ccc(C)nc21.CCn1cc(C(=O)[O-])c(=O)c2ccc(C)nc21.O.O.O.[La+3].[OH-] [La(nal)2, La(C12H11N2O3)2(OH)(H2O)·2H2O] | 2.20 ± 0.81
CCn1cc(C(=O)O)c(=O)c2ccc(C)nc21 [Nalidixic acid] | 2.18 ± 0.30
CCn1cc(C(=O)[O-])c(=O)c2ccc(C)nc21.CCn1cc(C(=O)[O-])c(=O)c2ccc(C)nc21.O.O.O.O.[Gd+3].[OH-] [Gd(nal)2, Gd(C12H11N2O3)2(OH)(H2O)·3H2O] | 2.33 ± 0.72
CCn1cc(C(=O)[O-])c(=O)c2ccc(C)nc21.CCn1cc(C(=O)[O-])c(=O)c2ccc(C)nc21.O.[OH-].[Tb+3] [Tb(nal)2, Tb(C12H11N2O3)2(OH)(H2O)·1.5H2O] | 2.50 ± 0.96
Tb(C12H11N2O3)3(H2O)2·1.5H2O [Tb(nal)3] | 2.60 ± 1.21
CCn1cc(C(=O)[O-])c(=O)c2ccc(C)nc21.CCn1cc(C(=O)[O-])c(=O)c2ccc(C)nc21.CCn1cc(C(=O)[O-])c(=O)c2ccc(C)nc21.O.O.O.O.O.O.O.O.[La+3] [La(nal)3, La(C12H11N2O3)3(H2O)2·6H2O] | 2.17 ± 0.99
Eu(C12H11N2O3)3(H2O)2·2.5H2O [Eu(nal)3] | 1.98 ± 0.95
Gd(C12H11N2O3)3(H2O)2·1.5H2O [Gd(nal)3] | 3.33 ± 1.43
CCn1cc(C(=O)[O-])c(=O)c2ccc(C)nc21.CCn1cc(C(=O)[O-])c(=O)c2ccc(C)nc21.O.O.O.O.[OH-].[Sm+3] [Sm(nal)2, Sm(C12H11N2O3)2(OH)(H2O)·3H2O] | 2.96 ± 0.77
